Values of other authors, collected in patent US20080306069A1, “Pyrazole Derivatives for the Inhibition of CDK'S and GSK'S” (ASTEX THERAPEUTICS LIMITED, priority 2005, published 2008).
At least one structure is not confirmed: it was looked up by name or label, or the drawing left a doubt.

Tested on: symptomatic CLL patients
Details: initial therapy

Nc1nc(F)nc2c1ncn2[C@@H]1O[C@H](CO)[C@@H](O)[C@@H]1O [fludarabine]
rate of complete responses: 27%
